Experimental data as given in PMC4863248.
No constants are given. Whether binding was seen depends on the method and setting. Binding seen in cells or lysates may run through a third protein. Sequences can lack the tags named with a protein.

Molecular target: T1, cMyc-Rv0247c (putative succinate dehydrogenase subunit B1) (Mycobacterium tuberculosis) (UniProt O53669)
T1 sequence: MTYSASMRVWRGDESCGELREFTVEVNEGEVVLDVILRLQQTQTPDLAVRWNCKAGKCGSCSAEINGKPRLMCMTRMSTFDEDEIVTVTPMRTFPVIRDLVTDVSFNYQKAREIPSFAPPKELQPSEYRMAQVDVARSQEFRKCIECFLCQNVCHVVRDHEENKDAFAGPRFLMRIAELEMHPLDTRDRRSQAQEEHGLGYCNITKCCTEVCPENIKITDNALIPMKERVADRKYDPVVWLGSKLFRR
Assay: co-IP

native YidC of M. smegmatis
binding: no binding
